Results deposited as PubChem BioAssay AID504774 (Drosophila RNAi Screening Center, 2011)
Purpose: 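Genes required for cells to withstand methyl methanesulphonate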 (primary screen). System: Drosophila Kc167 cells. Reagents: long dsRNA against Drosophila genes, about 0.25 µg dsRNA per well. Duration: about 6 days: 3 days knock-down, then 3 days with or without MMS. Conditions: methyl methanesulphonate 0.004% (w/v) for 3 days after knock-down. Measurement: 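ATP-dependent luminescence as a measure of live cells in MMS-exposed wells, quantile normalised within each plate, with replicate values also given as a mean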. Scale: mean viability with MMS and viability with MMS: higher = more surviving cells after MMS.
The screen tested about 23,000 reagents; shown is an unselected part of those that have a named target and a result. 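Values are quantile-normalised luminescence on an arbitrary scale; higher means more cells surviving MMS.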 Reagents against one gene are numbered here.

| predicted target | reagent no. | mean viability with MMS | viability with MMS, replicate 1 | viability with MMS, replicate 2 |
| --- | --- | --- | --- | --- |
| Grl65a (Gustatory receptor-like 65a) | 1 | 3.69e6 | 4.20e6 | 4.08e6 |
| Cpr78Ca (Cuticular protein 78Ca) | 1 | 3.51e6 | 4.05e6 | 3.88e6 |
| TbCMF46 | 1 | 3.40e6 | 3.80e6 | 3.87e6 |
| Rrp4 | 1 | 3.56e6 | 3.89e6 | 4.27e6 |
| CG10469 | 1 | 3.58e6 | 4.02e6 | 4.13e6 |
| Sidpn (similar to Deadpan) | 1 | 3.79e6 | 4.12e6 | 4.49e6 |
| dup (double parked) | 1 | 2.28e6 | 2.86e6 | 2.86e6 |
| CG13589 | 1 | 3.58e6 | 4.17e6 | 3.96e6 |
| in (inturned) | 1 | 3.54e6 | 4.06e6 | 3.98e6 |
| pn (prune) | 1 | 3.59e6 | 4.04e6 | 4.09e6 |
| St2 (Sulfotransferase 2) | 1 | 3.51e6 | 3.90e6 | 4.07e6 |
| St2 (Sulfotransferase 2) | 2 | 3.51e6 | 3.99e6 | 3.99e6 |
| Klp54D (Kinesin-like protein at 54D) | 1 | 3.48e6 | 3.89e6 | 3.99e6 |
| CG14722 | 1 | 3.56e6 | 4.05e6 | 4.05e6 |
| CG17036 | 1 | 3.53e6 | 4.00e6 | 4.03e6 |
| CngA (Cyclic nucleotide-gated ion channel subunit A) | 1 | 3.36e6 | 3.73e6 | 3.82e6 |
| CngA (Cyclic nucleotide-gated ion channel subunit A) | 2 | 3.47e6 | 3.85e6 | 3.99e6 |
| Takl1 (Tak1-like 1) | 1 | 3.44e6 | 3.89e6 | 3.91e6 |
| Tat (Tyrosine aminotransferase) | 1 | 3.73e6 | 4.21e6 | 4.12e6 |
| Polr3I (RNA polymerase III subunit I) | 1 | 3.46e6 | 3.92e6 | 3.89e6 |
| CG32631 | 1 | 3.48e6 | 4.10e6 | 3.88e6 |
| Jon99Cii (Jonah 99Cii) | 1 | 4.22e6 | 5.17e6 | 4.94e6 |
| Jon99Cii (Jonah 99Cii) | 2 | 3.55e6 | 4.04e6 | 3.98e6 |
| Psf1 (Partner of Sld Five 1) | 1 | 3.57e6 | 4.01e6 | 4.09e6 |
| Nplp2 (Neuropeptide-like precursor 2) | 1 | 3.55e6 | 4.00e6 | 4.05e6 |
| VhaAC45 (Vacuolar H[+] ATPase AC45 accessory subunit) | 1 | 3.38e6 | 3.85e6 | 3.77e6 |
| Pmm2 (Phosphomannomutase type 2) | 1 | 3.62e6 | 4.23e6 | 3.92e6 |
| CG13532 | 1 | 3.63e6 | 4.26e6 | 3.98e6 |
| Ald1 (Aldolase 1) | 1 | 3.46e6 | 4.01e6 | 3.86e6 |
| CG15353 | 1 | 3.52e6 | 4.01e6 | 4.16e6 |
| Sem1 (Suppressor of exocyst mutations 1) | 1 | 3.01e6 | 3.37e6 | 3.35e6 |
| SdhB (Succinate dehydrogenase, subunit B (iron-sulfur)) | 1 | 3.70e6 | 4.16e6 | 4.06e6 |
| SdhB (Succinate dehydrogenase, subunit B (iron-sulfur)) | 2 | 3.91e6 | 4.25e6 | 4.53e6 |
| Brf (Brf RNA polymerase III subunit) | 1 | 3.42e6 | 3.94e6 | 3.80e6 |
| Brf (Brf RNA polymerase III subunit) | 2 | 3.36e6 | 3.80e6 | 3.79e6 |
| Brf (Brf RNA polymerase III subunit) | 3 | 3.38e6 | 3.85e6 | 3.79e6 |
| ppk28 (pickpocket 28) | 1 | 3.52e6 | 3.96e6 | 4.03e6 |
| CG9294 | 1 | 3.56e6 | 4.10e6 | 3.97e6 |
| CG11658 | 1 | 3.55e6 | 4.13e6 | 3.93e6 |
| RpL38 (Ribosomal protein L38) | 1 | 3.24e6 | 3.68e6 | 3.66e6 |
| Galphas (G protein alpha subunit s) | 1 | 3.60e6 | 3.95e6 | 4.19e6 |
| CG31388 | 1 | 3.55e6 | 4.00e6 | 4.06e6 |
| CG5938 | 1 | 3.87e6 | 4.53e6 | 4.30e6 |
| CG13461 | 1 | 3.52e6 | 4.07e6 | 3.89e6 |
| Lgr3 (Leucine-rich repeat-containing G protein-coupled receptor 3) | 1 | 3.47e6 | 3.96e6 | 3.87e6 |
| Lgr3 (Leucine-rich repeat-containing G protein-coupled receptor 3) | 2 | 3.25e6 | 3.74e6 | 3.63e6 |
